Experimental data published in patent publication US20240374628A1 (Whispergenics. Inc., priority 2021, published 2024).
At least one structure is not confirmed: it was looked up by name or label, or the drawing left a doubt.

Tests used:
[1] = system: BIRC5 expression; test: Cardiac glycosides that inhibit BIRC5 expression in colorectal cancer; type: cell-based
[2] = system: CCD-18Co; test: CellTiter-Glo cell viability, CCD-18Co; type: cell-based, human; details: 48 h, dose curve 1.25 μM-80 μM, FIG. 2

SMILES	inhibition of BIRC5 expression [1]	sensitivity of cell viability [2]
C[C@]12CC[C@H](O)C[C@H]1CC[C@@H]1[C@@H]2C[C@@H](O)[C@]2(C)[C@@H](C3=CC(=O)OC3)CC[C@]12O [Digoxigenin]	inhibit BIRC5 expression	–
CCC(C)(C)C(=O)O[C@H]1C[C@@H](C)C=C2C=C[C@H](C)[C@H](CC[C@@H]3C[C@@H](O)CC(=O)O3)[C@H]21 [Simvastatin]	–	very sensitive
